The series in a line: Oxidation/degradation of A2E in acetonitrile solution under room light, A2E quantified by LCMSMS. To be noted: room temperature, 300 lux, A2E starts at 10 μM.

The structures appear in SMILES notation.

As for `COCCO[C@@H]1c2ccn3c(C)c(C)nc3c2N[C@H](c2ccccc2)[C@H]1O` [soraprazan], the “A2E μM 0 h” value (time after mixing 0 h) turned out to be 10 µM. For the same compound, the “A2E μM 2 h” value (time after mixing 2 h) was 8.29 µM.
